Experimental findings from the supplement of paper PMC10060354, “Discovery of a small molecule ligand of FRS2 that inhibits invasion and tumor growth” (Cellular Oncology, 2022) are described below.

The chains behind the UniProt entries cited, without tags or fusion partners. Where a name states a change or a piece, a line headed by the entry shows the natural chain unless it says otherwise.
UniProt Q92625: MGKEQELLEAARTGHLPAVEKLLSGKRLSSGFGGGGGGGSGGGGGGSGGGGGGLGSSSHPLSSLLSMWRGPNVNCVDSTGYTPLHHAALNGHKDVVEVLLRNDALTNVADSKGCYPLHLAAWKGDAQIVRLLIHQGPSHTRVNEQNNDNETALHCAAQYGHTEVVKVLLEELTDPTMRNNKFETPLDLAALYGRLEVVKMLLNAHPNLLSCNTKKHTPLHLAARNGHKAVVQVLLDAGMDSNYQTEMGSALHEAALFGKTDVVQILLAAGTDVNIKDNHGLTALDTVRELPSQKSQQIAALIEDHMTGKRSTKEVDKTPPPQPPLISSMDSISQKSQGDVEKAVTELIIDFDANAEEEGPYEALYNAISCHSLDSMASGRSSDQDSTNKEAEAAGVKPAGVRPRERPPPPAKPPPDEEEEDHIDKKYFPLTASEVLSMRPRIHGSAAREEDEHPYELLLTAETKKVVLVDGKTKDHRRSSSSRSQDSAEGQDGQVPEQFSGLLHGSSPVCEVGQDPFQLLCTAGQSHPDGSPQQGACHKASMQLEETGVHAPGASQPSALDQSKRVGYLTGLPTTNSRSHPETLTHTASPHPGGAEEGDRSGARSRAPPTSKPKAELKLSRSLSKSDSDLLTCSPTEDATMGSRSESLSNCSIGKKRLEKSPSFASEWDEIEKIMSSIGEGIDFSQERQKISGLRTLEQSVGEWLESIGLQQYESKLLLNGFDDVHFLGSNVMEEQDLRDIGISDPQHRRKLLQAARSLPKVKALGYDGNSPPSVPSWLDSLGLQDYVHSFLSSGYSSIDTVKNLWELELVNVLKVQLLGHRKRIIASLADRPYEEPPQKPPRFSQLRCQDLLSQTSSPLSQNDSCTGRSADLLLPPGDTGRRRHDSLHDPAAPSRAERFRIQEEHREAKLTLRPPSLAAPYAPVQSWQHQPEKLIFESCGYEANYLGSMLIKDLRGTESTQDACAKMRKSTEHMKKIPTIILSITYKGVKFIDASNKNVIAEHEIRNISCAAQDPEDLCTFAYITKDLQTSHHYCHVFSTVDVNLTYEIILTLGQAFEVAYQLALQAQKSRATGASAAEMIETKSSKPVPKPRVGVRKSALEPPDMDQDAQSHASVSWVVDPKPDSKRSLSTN
UniProt Q99766: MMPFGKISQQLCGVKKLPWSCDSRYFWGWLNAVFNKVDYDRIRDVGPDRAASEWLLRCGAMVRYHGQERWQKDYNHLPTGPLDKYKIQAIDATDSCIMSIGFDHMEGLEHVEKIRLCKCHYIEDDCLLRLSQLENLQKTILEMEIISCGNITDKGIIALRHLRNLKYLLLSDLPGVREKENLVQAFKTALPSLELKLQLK
UniProt Q9NVR2, whole entry: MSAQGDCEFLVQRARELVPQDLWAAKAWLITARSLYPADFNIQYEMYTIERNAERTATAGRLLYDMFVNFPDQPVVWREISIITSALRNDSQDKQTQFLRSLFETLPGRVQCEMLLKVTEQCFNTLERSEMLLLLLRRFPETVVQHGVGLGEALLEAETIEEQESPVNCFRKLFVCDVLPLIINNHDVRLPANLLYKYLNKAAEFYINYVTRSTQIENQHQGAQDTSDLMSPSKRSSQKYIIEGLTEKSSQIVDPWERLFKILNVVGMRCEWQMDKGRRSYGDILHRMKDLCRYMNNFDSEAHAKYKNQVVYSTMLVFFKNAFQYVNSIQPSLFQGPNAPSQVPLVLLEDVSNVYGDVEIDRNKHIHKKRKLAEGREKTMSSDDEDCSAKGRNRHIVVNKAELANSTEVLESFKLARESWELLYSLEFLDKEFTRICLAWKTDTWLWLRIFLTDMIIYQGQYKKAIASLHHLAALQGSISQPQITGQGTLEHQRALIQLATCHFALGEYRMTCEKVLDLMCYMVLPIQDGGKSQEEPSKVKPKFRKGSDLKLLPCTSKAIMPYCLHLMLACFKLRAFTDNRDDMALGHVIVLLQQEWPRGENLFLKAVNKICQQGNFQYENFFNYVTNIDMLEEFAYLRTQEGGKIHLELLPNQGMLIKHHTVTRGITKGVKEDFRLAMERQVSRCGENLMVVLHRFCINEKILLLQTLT
UniProt Q9BT73: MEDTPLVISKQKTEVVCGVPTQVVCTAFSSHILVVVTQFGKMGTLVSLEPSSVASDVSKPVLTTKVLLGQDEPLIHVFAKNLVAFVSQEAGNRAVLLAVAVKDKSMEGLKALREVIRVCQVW
UniProt P16383: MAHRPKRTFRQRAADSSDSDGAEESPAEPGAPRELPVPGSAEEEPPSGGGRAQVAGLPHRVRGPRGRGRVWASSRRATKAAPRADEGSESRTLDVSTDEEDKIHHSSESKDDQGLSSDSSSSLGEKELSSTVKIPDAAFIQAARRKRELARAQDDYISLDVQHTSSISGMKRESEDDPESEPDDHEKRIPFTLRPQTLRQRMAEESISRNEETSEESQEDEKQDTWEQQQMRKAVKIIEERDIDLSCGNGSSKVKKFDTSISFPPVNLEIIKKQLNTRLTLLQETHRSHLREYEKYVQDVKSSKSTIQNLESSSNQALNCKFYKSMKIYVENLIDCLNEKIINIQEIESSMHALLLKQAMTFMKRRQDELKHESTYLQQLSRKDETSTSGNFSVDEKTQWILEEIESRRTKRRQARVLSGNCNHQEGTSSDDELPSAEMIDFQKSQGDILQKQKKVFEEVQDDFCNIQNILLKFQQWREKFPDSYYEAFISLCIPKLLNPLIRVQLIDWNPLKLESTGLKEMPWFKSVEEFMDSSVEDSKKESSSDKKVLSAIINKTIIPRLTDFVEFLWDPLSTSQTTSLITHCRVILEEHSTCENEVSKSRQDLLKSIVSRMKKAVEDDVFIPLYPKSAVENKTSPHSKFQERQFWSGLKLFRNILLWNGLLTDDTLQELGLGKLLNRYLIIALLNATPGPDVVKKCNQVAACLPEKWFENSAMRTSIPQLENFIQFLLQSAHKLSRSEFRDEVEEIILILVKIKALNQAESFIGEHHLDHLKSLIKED
UniProt Q05655: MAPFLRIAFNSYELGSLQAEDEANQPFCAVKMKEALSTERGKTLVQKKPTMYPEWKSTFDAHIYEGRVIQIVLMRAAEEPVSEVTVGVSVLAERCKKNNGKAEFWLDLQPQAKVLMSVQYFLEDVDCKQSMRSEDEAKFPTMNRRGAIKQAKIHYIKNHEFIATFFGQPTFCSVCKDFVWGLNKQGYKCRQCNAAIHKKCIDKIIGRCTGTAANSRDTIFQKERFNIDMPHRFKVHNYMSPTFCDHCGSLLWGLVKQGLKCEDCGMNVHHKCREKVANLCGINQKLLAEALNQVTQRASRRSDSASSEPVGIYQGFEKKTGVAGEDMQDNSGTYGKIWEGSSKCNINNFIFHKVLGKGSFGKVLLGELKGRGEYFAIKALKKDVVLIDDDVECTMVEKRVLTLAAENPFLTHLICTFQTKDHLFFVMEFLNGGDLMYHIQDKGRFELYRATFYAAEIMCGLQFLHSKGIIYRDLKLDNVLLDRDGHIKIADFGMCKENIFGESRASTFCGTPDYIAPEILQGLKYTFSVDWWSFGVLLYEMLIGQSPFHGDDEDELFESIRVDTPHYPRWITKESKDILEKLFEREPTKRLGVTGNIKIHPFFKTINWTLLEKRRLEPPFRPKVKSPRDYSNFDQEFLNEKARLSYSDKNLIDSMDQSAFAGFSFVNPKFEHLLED
UniProt Q9H9Y2: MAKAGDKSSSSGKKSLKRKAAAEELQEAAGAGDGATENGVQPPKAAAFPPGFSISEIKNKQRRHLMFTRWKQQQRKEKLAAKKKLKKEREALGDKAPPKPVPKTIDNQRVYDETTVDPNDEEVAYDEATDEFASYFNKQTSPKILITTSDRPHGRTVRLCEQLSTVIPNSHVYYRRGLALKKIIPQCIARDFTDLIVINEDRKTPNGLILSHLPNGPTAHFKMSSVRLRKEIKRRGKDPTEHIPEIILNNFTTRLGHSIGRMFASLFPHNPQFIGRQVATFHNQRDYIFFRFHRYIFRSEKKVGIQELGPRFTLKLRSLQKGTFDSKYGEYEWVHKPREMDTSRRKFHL
UniProt P61225: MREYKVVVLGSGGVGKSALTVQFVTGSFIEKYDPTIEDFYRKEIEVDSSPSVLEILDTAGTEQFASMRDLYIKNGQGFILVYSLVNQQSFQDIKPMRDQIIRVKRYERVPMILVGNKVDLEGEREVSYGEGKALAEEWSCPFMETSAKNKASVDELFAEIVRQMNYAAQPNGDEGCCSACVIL
UniProt P41743, whole entry: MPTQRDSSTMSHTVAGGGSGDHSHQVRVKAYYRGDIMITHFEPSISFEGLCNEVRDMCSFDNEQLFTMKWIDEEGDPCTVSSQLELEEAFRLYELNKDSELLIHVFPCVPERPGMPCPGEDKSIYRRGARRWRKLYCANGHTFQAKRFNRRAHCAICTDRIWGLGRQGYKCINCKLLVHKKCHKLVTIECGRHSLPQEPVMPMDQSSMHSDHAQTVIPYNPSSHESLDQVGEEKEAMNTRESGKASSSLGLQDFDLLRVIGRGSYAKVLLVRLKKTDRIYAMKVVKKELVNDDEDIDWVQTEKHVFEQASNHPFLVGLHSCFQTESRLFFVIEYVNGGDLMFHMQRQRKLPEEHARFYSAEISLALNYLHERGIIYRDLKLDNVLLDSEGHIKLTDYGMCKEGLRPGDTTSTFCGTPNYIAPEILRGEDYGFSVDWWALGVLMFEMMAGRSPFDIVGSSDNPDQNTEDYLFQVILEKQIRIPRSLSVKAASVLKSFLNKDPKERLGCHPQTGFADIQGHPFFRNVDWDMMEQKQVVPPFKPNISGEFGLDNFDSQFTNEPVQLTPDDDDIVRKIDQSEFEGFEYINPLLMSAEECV
UniProt P62877, whole entry, looked up: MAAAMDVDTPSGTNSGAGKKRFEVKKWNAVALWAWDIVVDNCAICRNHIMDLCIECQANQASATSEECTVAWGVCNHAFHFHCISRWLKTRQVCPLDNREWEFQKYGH
UniProt Q6IA86: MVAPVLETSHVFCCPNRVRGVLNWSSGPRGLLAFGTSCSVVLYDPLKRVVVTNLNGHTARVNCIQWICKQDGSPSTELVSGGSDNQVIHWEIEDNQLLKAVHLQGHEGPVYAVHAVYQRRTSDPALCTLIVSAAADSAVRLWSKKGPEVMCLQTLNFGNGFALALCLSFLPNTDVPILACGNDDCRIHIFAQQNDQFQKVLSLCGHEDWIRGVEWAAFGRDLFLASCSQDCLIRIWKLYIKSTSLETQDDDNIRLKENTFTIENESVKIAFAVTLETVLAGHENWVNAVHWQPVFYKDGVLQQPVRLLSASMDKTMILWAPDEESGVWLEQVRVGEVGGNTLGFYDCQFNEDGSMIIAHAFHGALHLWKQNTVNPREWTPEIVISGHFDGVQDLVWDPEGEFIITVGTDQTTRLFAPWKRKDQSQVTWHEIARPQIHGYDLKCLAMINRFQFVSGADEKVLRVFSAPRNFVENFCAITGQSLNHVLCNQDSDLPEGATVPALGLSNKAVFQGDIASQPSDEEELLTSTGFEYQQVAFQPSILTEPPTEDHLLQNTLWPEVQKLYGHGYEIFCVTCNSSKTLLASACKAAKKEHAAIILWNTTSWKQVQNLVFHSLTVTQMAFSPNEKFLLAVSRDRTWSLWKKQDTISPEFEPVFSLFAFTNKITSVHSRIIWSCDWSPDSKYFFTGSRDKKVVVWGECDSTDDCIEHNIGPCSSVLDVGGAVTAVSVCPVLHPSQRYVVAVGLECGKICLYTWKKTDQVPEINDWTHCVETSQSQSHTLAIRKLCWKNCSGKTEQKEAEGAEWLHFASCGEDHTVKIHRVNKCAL
UniProt Q9NVV0: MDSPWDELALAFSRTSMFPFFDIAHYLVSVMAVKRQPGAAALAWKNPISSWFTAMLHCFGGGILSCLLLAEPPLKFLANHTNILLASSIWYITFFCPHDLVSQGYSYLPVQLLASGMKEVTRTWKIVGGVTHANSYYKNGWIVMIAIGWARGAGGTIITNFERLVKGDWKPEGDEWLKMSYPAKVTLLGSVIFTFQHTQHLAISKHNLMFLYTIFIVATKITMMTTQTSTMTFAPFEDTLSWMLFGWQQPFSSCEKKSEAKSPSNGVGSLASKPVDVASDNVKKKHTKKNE
UniProt P29992, whole entry: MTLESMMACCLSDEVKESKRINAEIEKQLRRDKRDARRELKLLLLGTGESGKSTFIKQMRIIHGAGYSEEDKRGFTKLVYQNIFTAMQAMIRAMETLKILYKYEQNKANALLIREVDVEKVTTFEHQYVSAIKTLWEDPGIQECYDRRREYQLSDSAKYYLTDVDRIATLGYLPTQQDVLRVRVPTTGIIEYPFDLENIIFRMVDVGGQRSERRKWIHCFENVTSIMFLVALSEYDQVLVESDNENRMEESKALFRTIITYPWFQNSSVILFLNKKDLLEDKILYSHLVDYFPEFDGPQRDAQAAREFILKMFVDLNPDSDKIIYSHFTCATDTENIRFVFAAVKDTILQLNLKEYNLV

Many values rest on one well or one pass, so single values are uncertain.

Compound in the experiment: [O-][N+](C(C1=C(C(O)=C2)NC(C(C=C3)=CC=C3Cl)C4C1C=CC4)=C2Cl)=O
The experiment can be described thus: melting temperature shift (compound 7 minus DMSO); higher = compound stabilises the protein. The note with it: 10 µM. On the procedure: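 Thermal proteome profiling (TMT mass spectrometry) in intact DAOY medulloblastoma cells or DAOY lysates treated with 10 µM compound 7 or DMSO, heated at 10 temperatures from 40.5 to 73.8 °C for 3 min. Melting curves were fitted with the Bioconductor TPP package, and the melting point difference between compound and vehicle is reported per protein (single curve per condition).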

Where [1] appears, read: system: DAOY cell lysate, treatment time: 20 min, 4 °C.
Where [2] appears, read: system: intact DAOY cells, treatment time: 90 min, 37 °C.

Consider ANKS1A (UniProt Q92625), for which the melting temperature shift is -0.852 °C under setting [1] and 0.995 °C under setting [2].

Regarding UniProt Q99766, the melting temperature shift under setting [1] was 1.32 °C and the melting temperature shift under setting [2] is -0.0169 °C.

For the target CASP7 (UniProt P55210), the melting temperature shift is, setting by setting: under setting [1], -1.71 °C; under setting [2], -0.107 °C.

In the case of UniProt Q9NVR2, the melting temperature shift under setting [1] worked out at 1.62 °C and the melting temperature shift under setting [2] worked out at 1.79 °C.

With PSMG3 (UniProt Q9BT73), the melting temperature shift by setting is: under setting [1], 5 °C; under setting [2], 1.39 °C.

For GCFC2 (UniProt P16383), the melting temperature shift by setting is: under setting [1], -2.78 °C; under setting [2], -3.48 °C.

As to UniProt Q05655, the melting temperature shift under setting [1] is -0.575 °C.

Consider UniProt Q9H9Y2, for which the melting temperature shift under setting [1] was determined as 0.32 °C.

As to RAP2B (UniProt P61225), the melting temperature shift is 1.22 °C under setting [1] and -4.44 °C under setting [2].

For MRPS24 (UniProt Q96EL2), the melting temperature shift under setting [2] amounted to 2 °C.

For UniProt P41743, the melting temperature shift is 0.363 °C under setting [1] and 0.0866 °C under setting [2].

As for RBX1 (UniProt P62877), the melting temperature shift was 0.0507 °C under setting [1] and -0.258 °C under setting [2].

With ELP2 (UniProt Q6IA86), the melting temperature shift runs as follows: under setting [1], -0.00374 °C; under setting [2], -2.21 °C.

As for TMEM38B (UniProt Q9NVV0), the melting temperature shift reads like this: under setting [1], -1.6 °C; under setting [2], -1.29 °C.

GNA11 (UniProt P29992): the melting temperature shift under setting [1] was 0.796 °C and the melting temperature shift under setting [2] was -0.193 °C.

As to ASAP2 (UniProt O43150), under setting [1], the melting temperature shift stood at 0.584 °C.
